These are yes or no findings as the source states them, for the method shown. Binding seen in cells or lysates may run through a third protein. Some binding calls cover weakened binding; strength is not graded here. Tags and fused reporters may be left off the sequences shown. Each block holds one binder with its values, some of them ahead of it.
Tests used:
[1] = biological target: T1, V5-RBM41 (human) (UniProt Q96IZ5); experiment: co-IP; anti-V5 or control antibody crosslinked (BS3) to Dynabeads Protein G; lysate of Flp-In T-REx 293 cell lines expressing V5-RBM41 or V5-65K; lysis buffer 20 mM HEPES pH 7.9, 137 mM NaCl, 10% glycerol, 1% NP-40; western blot
T1 sequence: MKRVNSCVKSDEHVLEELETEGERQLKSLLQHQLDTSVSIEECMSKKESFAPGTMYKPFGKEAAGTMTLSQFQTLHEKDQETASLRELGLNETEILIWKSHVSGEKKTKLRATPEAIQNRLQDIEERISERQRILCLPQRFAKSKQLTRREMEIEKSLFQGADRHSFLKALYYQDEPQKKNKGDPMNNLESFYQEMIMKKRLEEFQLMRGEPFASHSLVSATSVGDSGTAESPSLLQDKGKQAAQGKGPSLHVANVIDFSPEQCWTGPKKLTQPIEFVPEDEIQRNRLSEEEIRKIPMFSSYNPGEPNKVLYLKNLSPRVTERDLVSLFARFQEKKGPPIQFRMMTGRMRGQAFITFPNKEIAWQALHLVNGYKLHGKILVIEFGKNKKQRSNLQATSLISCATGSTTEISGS

[2] = biological target: T2, V5-65K (human) (UniProt Q96LT9); experiment: as above
T2 sequence: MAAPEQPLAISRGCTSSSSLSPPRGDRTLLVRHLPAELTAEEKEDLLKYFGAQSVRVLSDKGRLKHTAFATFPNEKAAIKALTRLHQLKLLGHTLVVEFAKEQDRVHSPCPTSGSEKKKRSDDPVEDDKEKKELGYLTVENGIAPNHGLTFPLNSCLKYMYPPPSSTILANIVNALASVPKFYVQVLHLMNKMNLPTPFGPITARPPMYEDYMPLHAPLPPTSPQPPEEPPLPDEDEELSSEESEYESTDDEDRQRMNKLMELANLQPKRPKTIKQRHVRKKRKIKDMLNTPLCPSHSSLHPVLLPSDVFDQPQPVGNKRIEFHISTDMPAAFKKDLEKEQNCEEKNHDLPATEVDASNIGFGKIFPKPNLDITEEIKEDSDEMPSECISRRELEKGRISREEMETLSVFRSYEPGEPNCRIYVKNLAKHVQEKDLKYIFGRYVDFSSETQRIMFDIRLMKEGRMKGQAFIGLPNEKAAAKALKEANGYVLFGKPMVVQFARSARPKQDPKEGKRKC

binding [1]: binds
B1: DEAH-box RNA helicase DHX8 (enzyme, UniProt Q14562 1-1220)
chain: MAVAVAMAGALIGSEPGPAEELAKLEYLSLVSKVCTELDNHLGINDKDLAEFVISLAEKNTTFDTFKASLVKNGAEFTDSLISNLLRLIQTMRPPAKPSTSKDPVVKPKTEKEKLKELFPVLCQPDNPSVRTMLDEDDVKVAVDVLKELEALMPSAAGQEKQRDAEHRDRTKKKKRSRSRDRNRDRDRDRERNRDRDHKRRHRSRSRSRSRTRERNKVKSRYRSRSRSQSPPKDRKDRDKYGERNLDRWRDKHVDRPPPEEPTIGDIYNGKVTSIMQFGCFVQLEGLRKRWEGLVHISELRREGRVANVADVVSKGQRVKVKVLSFTGTKTSLSMKDVDQETGEDLNPNRRRNLVGETNEETSMRNPDRPTHLSLVSAPEVEDDSLERKRLTRISDPEKWEIKQMIAANVLSKEEFPDFDEETGILPKVDDEEDEDLEIELVEEEPPFLRGHTKQSMDMSPIKIVKNPDGSLSQAAMMQSALAKERRELKQAQREAEMDSIPMGLNKHWVDPLPDAEGRQIAANMRGIGMMPNDIPEWKKHAFGGNKASYGKKTQMSILEQRESLPIYKLKEQLVQAVHDNQILIVIGETGSGKTTQITQYLAEAGYTSRGKIGCTQPRRVAAMSVAKRVSEEFGCCLGQEVGYTIRFEDCTSPETVIKYMTDGMLLRECLIDPDLTQYAIIMLDEAHERTIHTDVLFGLLKKTVQKRQDMKLIVTSATLDAVKFSQYFYEAPIFTIPGRTYPVEILYTKEPETDYLDASLITVMQIHLTEPPGDILVFLTGQEEIDTACEILYERMKSLGPDVPELIILPVYSALPSEMQTRIFDPAPPGSRKVVIATNIAETSLTIDGIYYVVDPGFVKQKVYNSKTGIDQLVVTPISQAQAKQRAGRAGRTGPGKCYRLYTERAYRDEMLTTNVPEIQRTNLASTVLSLKAMGINDLLSFDFMDAPPMETLITAMEQLYTLGALDDEGLLTRLGRRMAEFPLEPMLCKMLIMSVHLGCSEEMLTIVSMLSVQNVFYRPKDKQALADQKKAKFHQTEGDHLTLLAVYNSWKNNKFSNPWCYENFIQARSLRRAQDIRKQMLGIMDRHKLDVVSCGKSTVRVQKAICSGFFRNAAKKDPQEGYRTLIDQQVVYIHPSSALFNRQPEWVVYHELVLTTKEYMREVTTIDPRWLVEFAPAFFKVSDPTKLSKQKKQQRLEPLYNRYEEPNAWRISRAFRRR

binding [2]: binds
binding [1]: no binding
B2: U11-48K (SNRNP48) (protein, UniProt Q6IEG0 1-339)
chain: MEGEPPPVEERRRLQEELNEFVESGCRTLEEVTASLGWDLDSLDPGEEEAAEDEVVICPYDSNHHMPKSSLAKHMASCRLRKMGYTKEEEDEMYNPEFFYENVKIPSITLNKDSQFQIIKQARTAVGKDSDCYNQRIYSSLPVEVPLNHKRFVCDLTQADRLALYDFVVEETKKKRSDSQIIENDSDLFVDLAAKINQDNSRKSPKSYLEILAEVRDYKRRRQSYRAKNVHITKKSYTEVIRDVINVHMEELSNHWQEEQEKAEDDAEKNEERRSASVDSRQSGGSYLDAECSRHRRDRSRSPHKRKRNKDKDKNCESRRRKERDGERHHSHKRRKQKI

binding [2]: binds
binding [1]: no binding
B3: U11-59K (PDCD7) (protein, UniProt Q8N8D1 1-485)
chain: MALPPFFGQGRPGPPPPQPPPPAPFGCPPPPLPSPAFPPPLPQRPGPFPGASAPFLQPPLALQPRASAEASRGGGGAGAFYPVPPPPLPPPPPQCRPFPGTDAGERPRPPPPGPGPPWSPRWPEAPPPPADVLGDAALQRLRDRQWLEAVFGTPRRAGCPVPQRTHAGPSLGEVRARLLRALRLVRRLRGLSQALREAEADGAAWVLLYSQTAPLRAELAERLQPLTQAAYVGEARRRLERVRRRRLRLRERAREREAEREAEAARAVEREQEIDRWRVKCVQEVEEKKREQELKAAADGVLSEVRKKQADTKRMVDILRALEKLRKLRKEAAARKGVCPPASADETFTHHLQRLRKLIKKRSELYEAEERALRVMLEGEQEEERKRELEKKQRKEKEKILLQKREIESKLFGDPDEFPLAHLLEPFRQYYLQAEHSLPALIQIRHDWDQYLVPSDHPKGNFVPQGWVLPPLPSNDIWATAVKLH

From PMC11039992
